These are yes or no findings as the source states them, for the method shown. Binding seen in cells or lysates may run through a third protein. Some binding calls cover weakened binding; strength is not graded here.

Protein sequences, listed by entry. Tags and fused reporters are not part of them.
UniProt Q9UKT9: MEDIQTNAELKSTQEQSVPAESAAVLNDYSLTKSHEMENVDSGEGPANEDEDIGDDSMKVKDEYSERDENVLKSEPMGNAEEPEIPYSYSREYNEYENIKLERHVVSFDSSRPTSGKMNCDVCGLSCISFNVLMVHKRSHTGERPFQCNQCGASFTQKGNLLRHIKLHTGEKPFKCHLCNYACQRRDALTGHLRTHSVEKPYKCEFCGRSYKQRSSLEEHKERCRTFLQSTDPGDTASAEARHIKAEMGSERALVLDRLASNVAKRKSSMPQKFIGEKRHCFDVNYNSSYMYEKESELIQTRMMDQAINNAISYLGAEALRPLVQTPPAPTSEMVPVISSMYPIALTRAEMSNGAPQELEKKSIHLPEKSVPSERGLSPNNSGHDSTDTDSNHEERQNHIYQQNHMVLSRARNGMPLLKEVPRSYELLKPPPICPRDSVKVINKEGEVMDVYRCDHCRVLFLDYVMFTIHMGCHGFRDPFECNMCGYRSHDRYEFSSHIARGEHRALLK
UniProt Q01196: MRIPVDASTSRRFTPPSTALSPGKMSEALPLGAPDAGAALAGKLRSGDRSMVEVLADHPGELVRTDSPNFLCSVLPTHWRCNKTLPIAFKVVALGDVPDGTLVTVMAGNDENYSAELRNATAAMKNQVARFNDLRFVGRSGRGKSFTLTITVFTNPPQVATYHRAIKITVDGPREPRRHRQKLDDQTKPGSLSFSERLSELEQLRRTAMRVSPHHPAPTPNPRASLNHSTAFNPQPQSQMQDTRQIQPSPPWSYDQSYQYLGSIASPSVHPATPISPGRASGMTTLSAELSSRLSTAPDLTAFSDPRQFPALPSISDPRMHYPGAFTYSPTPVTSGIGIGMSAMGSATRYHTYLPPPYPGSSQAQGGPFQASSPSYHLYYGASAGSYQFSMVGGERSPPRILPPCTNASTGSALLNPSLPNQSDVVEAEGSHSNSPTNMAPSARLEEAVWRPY

The target in test [1] is T1, hypermethylated in cancer 1 (HIC1) (human) (UniProt Q14526).
T1 sequence: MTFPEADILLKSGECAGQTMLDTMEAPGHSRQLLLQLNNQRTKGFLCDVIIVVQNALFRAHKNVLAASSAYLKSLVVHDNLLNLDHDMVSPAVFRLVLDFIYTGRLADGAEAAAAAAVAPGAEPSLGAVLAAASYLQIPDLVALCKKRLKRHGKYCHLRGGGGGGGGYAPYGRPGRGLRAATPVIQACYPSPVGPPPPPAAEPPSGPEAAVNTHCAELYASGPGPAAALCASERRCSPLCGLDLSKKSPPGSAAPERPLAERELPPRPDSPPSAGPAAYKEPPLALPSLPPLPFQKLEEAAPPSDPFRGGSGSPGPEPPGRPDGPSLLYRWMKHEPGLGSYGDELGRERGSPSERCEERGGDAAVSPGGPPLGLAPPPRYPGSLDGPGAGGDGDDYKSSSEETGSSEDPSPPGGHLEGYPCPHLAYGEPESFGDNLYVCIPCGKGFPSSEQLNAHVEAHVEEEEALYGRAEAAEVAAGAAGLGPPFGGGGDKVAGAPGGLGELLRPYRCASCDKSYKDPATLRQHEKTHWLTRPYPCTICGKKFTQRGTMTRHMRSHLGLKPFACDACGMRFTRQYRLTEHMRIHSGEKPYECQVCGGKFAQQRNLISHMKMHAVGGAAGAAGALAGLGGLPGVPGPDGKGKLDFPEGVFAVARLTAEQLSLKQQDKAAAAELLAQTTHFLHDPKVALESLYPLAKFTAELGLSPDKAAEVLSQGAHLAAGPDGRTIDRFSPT
Briefly: co-IP.

The target in test [2] is T1, hypermethylated in cancer 1 (HIC1) (human). Briefly: proximity ligation.

Consider IKZF3 (from UniProt Q9UKT9 1-509), for which the binding entry in test [1] and in test [2] was “binds” each time.
Consider “Runt-related transcription factor 1 (RUNX1) (from UniProt Q01196 1-453)”, for which the binding entry in test [1] and in test [2] was “binds” each time.

These data come from doi:10.1101/2023.05.15.540505.
